Source: PubChem BioAssay AID1458 (National Center for Advancing Translational Sciences (NCATS), 2008)
Out of some 210,000 compounds screened, about 5,900 (2.8%) were called active. Roughly 5% stayed inconclusive and do not appear here. The call rests on the fitted dose curve; in most records, active means well fitted activation curve with a large enough effect; inconclusive means small, poorly fitted or top-dose-only effect; inactive means no such curve, though single readings can be large or run the other way. The list shows a part of the results, in another mix than the full data. Where no call is shown, the source filed none.

Experiment: qHTS Assay for Enhancers of SMN2 Splice Variant Expression; further: nearly all actives have a fitted effect of over 55% in size; on activity change, positive = activation: % of control where 0% means no effect
Conditions: HEK293 SMN2-luciferase splicing reporter, luminescence, 30-36 h; activity change, positive = activation: at 46.1 µM (top of the series) unless noted
Method in brief: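 qHTS luciferase splicing reporter: luminescence rises when SMN2 exon 7 is included in transfected HEK293 cells. Compound exposure lasted 30-36 h at 37C, with 4.5 mM final sodium butyrate as control, followed by a ONE-Glo read.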
Potency means the concentration at half of the fitted maximal effect.

Row | SMILES | Potency | activity change, positive = activation
1 | CCN(/C=N/c1sc2c(c1C#N)CCCCC2)CC | active: 11.2 µM | 
2 | CC(C)CC(C(=O)NC(C)(C)C)N(CC1CCCO1)C(=O)c1snc(C(N)=O)c1N (stereo not drawn) |  | inactive: -37.6%
3 | CCOC(=O)c1sc(NC(=O)c2ccccc2OC)nc1C | active: 2.51 µM | 
4 | Cc1ccc(C(=O)OCC(=O)c2ccc(Cl)s2)s1 |  | 27.8%
5 | CCOC(=O)C1=C(c2cccc(Oc3ccccc3)c2)NC(=S)NC1C (stereo not drawn) |  | -41.3%
6 | Cn1ccnc1SCC(=O)c1ccc(Cl)cc1 |  | 67.9%
7 | CCC1(C)COC2(OC1)C(=O)Nc1ccccc12 (stereo not drawn) |  | 35.4%
8 | C=CCNc1oc(/C=C/c2ccccc2)nc1C#N | active: 11.2 µM | 
9 | O=C(C1CCN(CC2CC=CCC2)CC1)N(CCc1ccccc1)Cc1ccccc1 (stereo not drawn) |  | -46%
10 | O=C(CN1CCCC1)Nc1ccc(NC(=O)Nc2ccccc2)cc1 |  | 48.9%
11 | COc1ccc2c(COC(=O)c3n[nH]c4ccccc34)cc(=O)oc2c1 | active: 20 µM | 
12 | CC(=O)c1c(C)oc2ccc(NS(=O)(=O)c3ccc(C(C)C)cc3)cc12 |  | inactive: -43.1%
13 | CC(C)c1ccc(C(=O)NN2C(=O)C3CCCCC3C2=O)cc1 (stereo not drawn) | active: 11.2 µM | 
14 | O=C(c1ccc2c(c1)OCO2)N1CCN(c2ccc(C(F)(F)F)cn2)CC1 |  | -76.2%
15 | O=C(CN1C(=O)C(c2ccc(F)cc2)=NC12CCCC2)Nc1ccc(F)cc1 |  | -80.3%
16 | O=C(/C=C\c1ccccc1OC(=O)c1ccccc1F)c1cc2ccccc2o1 |  | inactive: -117%
17 | COc1ccc2c(c1)CC/C(=C/c1ccco1)C2=O | active: 17.8 µM | 
18 | CC(=O)N1CC=C2C(C#N)=C(N)C(C#N)(C#N)C(C)C2C1 (stereo not drawn) |  | 45%
19 | COc1ccc(NC(=O)CSc2nc(-c3ccc(OC)cc3)cc(=O)[nH]2)cc1 |  | 33.8%
20 | Cc1ccc(CSCc2nnc(SCC(=O)N3CCN(c4ccccc4)CC3)n2C)cc1 |  | inactive: -46.3%
21 | COc1ccc(CNC(=O)C(c2ccco2)N(Cc2ccccc2)C(=O)Cc2cccs2)cc1 (stereo not drawn) |  | inactive: 12%
22 | COc1ccc(C(=O)Nc2ccc3nc(C)sc3c2)cc1OC |  | -5.91%
23 | Cc1cccc2nc(CNc3ccc(F)cc3)cn12 |  | 49.5%

Row | SMILES | Potency | activity change, positive = activation
24 | CSc1ccc(Cl)c(C(=O)OCC(=O)NCc2ccco2)c1 |  | 64.6%
25 | COc1cc(NS(=O)(=O)c2ccc(N/C=C\C(=O)c3ccc(OC)c(OC)c3)cc2)nc(OC)n1 |  | -34.3%
26 | COc1ccccc1NS(=O)(=O)c1cccc(NC(=S)NCCN2CCOCC2)c1 |  | 16.1%
27 | Cc1ccc(/C=C/c2nc3ccccc3[nH]2)o1 | active: 3.98 µM | 
28 | CC(=O)Nc1ccc(SCC(=O)Nc2sccc2C#N)cc1 |  | 67.9%
29 | CC1(C)CC(=O)C(/C=N/n2cnc3ccccc3c2=O)=C(O)C1 |  | 30.9%
30 | COc1ccc(NC(=O)C(NC(=O)/C=C\c2ccc3c(c2)OCO3)c2ccccc2)cc1 (stereo not drawn) | active: 2 µM | 
31 | O=c1cc(NCc2ccc3c(c2)OCO3)[nH]c(=O)n1-c1ccc(Cl)cc1 |  | 40.4%
32 | COc1cc(C2C(C#N)=C(N)Oc3cc(O)ccc32)cc(OC)c1OC (stereo not drawn) |  | 61.2%
33 | Oc1c(Cl)cc(Cl)cc1C=Nc1ccc(Br)cc1 |  | 42.9%
34 | CC1CCCC(NC(=S)Nc2ccc(SC(F)F)cc2)C1C (stereo not drawn) |  | -34.8%
35 | CC(C(=O)Nc1nccs1)N1C(=O)C2CC=CCC2C1=O (stereo not drawn) |  | 24.5%
36 | O=C(Nc1ccccc1C(F)(F)F)N1CCN(c2ccc3nnc(-c4ccc(F)cc4)n3n2)CC1 | inactive | 
37 | CCCN(CCC)CC(O)Cn1cc(/C=C/C(=O)c2ccc(OCC)cc2)c2ccccc21 (stereo not drawn) |  | inactive: -40.3%
38 | COc1ccc(Nc2nc(N)nc(CSc3nc4cc(OC)ccc4s3)n2)cc1 |  | inactive: -68.4%
39 | O=C(c1cccc(F)c1)N1CCN(C(=O)c2cc(-c3ccc(Cl)cc3Cl)on2)CC1 |  | -38.5%
40 | CCCc1cc(C(=O)Cc2ccc(C(=O)OCC)o2)c(O)cc1O |  | -50.3%
41 | COc1ccc(/C=N/c2oc(-c3ccccc3)cc2C#N)cc1OC |  | inactive: -43.5%
42 | CCOC(=O)c1c(C)[nH]c(C(=O)COC(=O)CNC(=O)c2ccccc2Cl)c1C |  | 67.1%
43 | Fc1cccc(Cl)c1Cn1nnc(-c2ccc3c(c2)OCO3)n1 | active: 12.6 µM | 
44 | COc1ccccc1C(=O)NCCCn1cc(Br)c(C)n1 |  | 36.5%
45 | CN(C)c1ccc(/C=C(/C#N)C(=O)NCc2ccccc2)o1 | active: 12.6 µM | 
46 | COc1ccccc1N1CCN(S(=O)(=O)c2ccc(F)cc2)CC1 |  | -52.5%

Looked up above:
activity change, positive = activation, COc1ccccc1NS(=O)(=O)c1cccc(NC(=S)NCCN2CCOCC2)c1 is entered as 16.1%
Potency, COc1ccc(NC(=O)C(NC(=O)/C=C\c2ccc3c(c2)OCO3)c2ccccc2)cc1 (stereo not drawn) is entered as active: 2 µM

Following part.

Row | SMILES | Potency | activity change, positive = activation
47 | CC(CC(=O)N1CCN(c2ccc(C(F)(F)F)cn2)CC1)n1ccnc1 (stereo not drawn) |  | inactive: -33.6%
48 | CCC(=O)Nc1nc(=S)ss1 |  | -37.2%
49 | COC(=O)C1=C(C)OC(N)=C(C#N)C1c1c(C)nn(C)c1C (stereo not drawn) |  | 30.6%
50 | COc1ccc(CN=C2NN=C(c3ccc(Cl)cc3)CS2)cc1 | active: 20 µM | 
51 | CN1/C(=C\C(=O)COc2ccc3c(c2)OCO3)C(C)(C)c2ccccc21 |  | -68.4%
52 | COC(=O)c1ccc(-c2nc3cc(Cl)c(N)cc3s2)cc1 | active: 1.41 µM | 
53 | COc1ccc(/C=C\C(=O)c2c(O)ccc3c(C)cc(=O)oc23)cc1OC |  | inactive: -46.3%
54 | O=C(CCC1N=C2c3ccccc3N=C(SCc3ccc(F)cc3)N2C1=O)NCc1ccco1 (stereo not drawn) |  | 37.2%
55 | Cc1cc2nc(-c3cccnc3SCC(=O)NC3CC3)[nH]c2cc1C | active: 15.8 µM | 
56 | COc1ccccc1N1CCN(C(=O)/C=C/c2ccco2)CC1 |  | 30.7%
57 | CCN(CC)S(=O)(=O)c1ccc2oc(SCc3ccc(F)cc3)nc2c1 |  | -82.7%
58 | COC(=O)c1cnc(SCc2ccc(Cl)cc2)n1C |  | 34.9%
59 | Fc1ccc(CSc2nnc(-c3ccncc3)o2)cc1 |  | inactive: -30.2%
60 | COc1ccc2nc(Nc3ccccc3OC)sc2c1 | active: 2.82 µM | 
61 | COc1ccc(S(=O)(=O)N(C)CC(=O)Nc2ccccc2C(F)(F)F)cc1OC |  | 31.9%
62 | Cc1cccc(NC(=O)c2cc(-c3ccc(C)s3)nc3ccccc23)n1 |  | inactive: -31.4%
63 | COc1cccc(-c2noc(-c3cccnc3)n2)c1 | active: 20 µM | 
64 | CCn1c(=O)c(=O)n(CC)c2cc(N3CCCCC3)c(NC(=O)c3ccc(Cl)cc3)cc21 |  | 42.9%
65 | Cc1cccc(NC(=O)C2CCN(S(=O)(=O)c3c(C)noc3/C=C/c3ccco3)CC2)n1 |  | inactive: -45%
66 | CCCCN(C(=O)NC(=O)Nc1c(C)cc(C)cc1C)S(C)(=O)=O |  | 39.5%
67 | CCS(=O)(=O)N1CCC(c2nc(-c3ccc(C(F)(F)F)cc3)no2)CC1 |  | inactive: -47.2%
68 | CC1CCN(S(=O)(=O)c2ccc3c(c2)C(=NO)c2cc(S(=O)(=O)N4CCC(C)CC4)ccc2-3)CC1 |  | inactive: -98.1%
